Measurements reported in the supplement of paper PMC12823440, “Inhibitors supercharge kinase turnover through native proteolytic circuits” (Nature, 2025).
Structures can show the parent of a compound that is named as a salt. Some of the results follow. The calls rarely recur for the same compound in another form.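 In K562 cells expressing nanoluciferase-fused kinases, luminescence was recorded at 4 h intervals between 2 and 18 h, normalized as percent of control with DMSO at 100% and a positive control at 0%. A significant (2 sigma) signal drop marks a time point as decreased. The authors' rule for a hit is not shown and takes in more than the number of time points.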

Protein sequences, listed by entry. Tags and fused reporters are not part of them. Lines headed by an entry give the natural chain unless they say otherwise; changes in a name come on top.
UniProt Q15131: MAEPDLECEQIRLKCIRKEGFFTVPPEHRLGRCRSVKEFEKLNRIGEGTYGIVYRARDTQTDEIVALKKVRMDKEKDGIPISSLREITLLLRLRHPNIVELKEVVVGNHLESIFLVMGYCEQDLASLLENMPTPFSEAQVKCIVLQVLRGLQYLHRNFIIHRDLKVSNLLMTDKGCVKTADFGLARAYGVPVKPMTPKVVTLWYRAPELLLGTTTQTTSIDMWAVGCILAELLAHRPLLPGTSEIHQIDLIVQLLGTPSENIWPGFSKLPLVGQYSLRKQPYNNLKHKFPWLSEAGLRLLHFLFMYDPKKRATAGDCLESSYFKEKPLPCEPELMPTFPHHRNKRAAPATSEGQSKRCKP

Molecular target: CDK10 (UniProt Q15131)
Experiment: number of time points (of 5) at which kinase-Nluc abundance scored as decreased, DMSO-normalised (count); higher = more persistent destabilization
Settings: K562; 2-18 h

Row | Structure (SMILES) | number of time points
1 | Cn1c(N2CCO[C@@H](c3ccc(F)cc3)C2)nc(-c2ccncn2)cc1=O (10 µM) | 0
2 | C[C@@H](NC(=O)c1ncnc(N)c1Cl)c1ncc(C(=O)Nc2cc(C(F)(F)F)c(Cl)cn2)s1 (2.5 µM) | 0
3 | CO/N=C1/C(c2c(O)[nH]c3cc(Cl)c(Cl)cc23)=Nc2ccccc21 (10 µM) | 0
4 | Cc1n[nH]c2ncc(C(=O)N3CCC[C@H]3c3ccc(Cl)cc3)cc12 (10 µM) | 0
5 | Cc1ccc(Nc2cc(N[C@@H]3CCCC[C@@H]3N)nnc2C(N)=O)nc1C (2 µM) | 0
6 | NC(=O)c1cnc(N[C@@H]2CCCC[C@@H]2N)nc1Nc1cccc(-n2nccn2)c1 (2.5 µM) | 0
7 | CCc1c(C(=O)NNC(=O)[C@H](O)c2cc(F)cc(F)c2)ccc(O)c1C (10 µM) | 0
8 | CC/C(=C(\c1ccccc1)c1ccc(OCCNC)cc1)c1ccccc1 [N-Desmethyltamoxifen (hydrochloride)] (2.5 µM) | 0
9 | CCCCNc1ncc(C(=O)NCc2ccc(-n3ccnc3)cc2)c(NC2CCC(O)CC2)n1 (centres undefined) (10 µM) | 0
10 | Oc1ccc(-c2cnc3ccc(NCc4ccco4)nn23)cc1 [IRAK inhibitor 2] (2.5 µM) | 0
11 | CS(=O)(=O)c1ccc([C@@H](CC2CCCC2)C(=O)Nc2nccs2)cc1 (10 µM) | 0
12 | CC(=O)O/N=C1/C(c2c(O)[nH]c3cc(Br)ccc23)=Nc2ccccc21 [BIO-acetoxime] (10 µM) | 0
13 | COc1cc2nc(-c3cc(F)ccc3O)nc(N[C@@H]3CNC[C@H]3C(C)(C)O)c2cc1OC (2.5 µM) | 0
14 | CS(=O)(=O)c1cccc(CNc2nc(Nc3ccc4c(c3)CCC(=O)N4)ncc2C(F)(F)F)c1 (10 µM) | 0
15 | Nc1nc(Nc2ccc3c(c2)CC[C@@H](N2CCCC2)CC3)nn1-c1cc2c(nn1)-c1ccccc1CCC2 [Bemcentinib] (2.5 µM) | 0
16 | Nc1[nH]nc2nnc(-c3c(-c4ccccc4)nn4ccccc34)cc12 (10 µM) | 0
17 | CN1CCN(Cc2ccc(-c3cnc4[nH]cc(-c5ccc6[nH]ccc6c5)c4c3)cc2)CC1 (2.5 µM) | 0
18 | CC(C)n1cnc2c(Nc3cccc(Cl)c3)nc(N[C@H]3CCCC[C@@H]3N)nc21 (2.5 µM) | 0
19 | CCC(F)(F)c1cc(N2CCC(S(C)(=O)=O)CC2)nc2sc(C(N)=O)c(N)c12 (10 µM) | 0
20 | CC(C)c1cc2c(c(O)c1O)[C@@]13CCCC(C)(C)[C@@H]1C[C@@H]2OC3=O [Carnosol] (2.5 µM) | 0

From no. 12 up to 13, as listed above:
Row | Structure (SMILES) | number of time points
12 | CC(=O)O/N=C1/C(c2c(O)[nH]c3cc(Br)ccc23)=Nc2ccccc21 [BIO-acetoxime] (10 µM) | 0
13 | COc1cc2nc(-c3cc(F)ccc3O)nc(N[C@@H]3CNC[C@H]3C(C)(C)O)c2cc1OC (2.5 µM) | 0

Carrying on:

Row | Structure (SMILES) | number of time points
21 | COc1ccc2nc3ccc(OC)cc3c(SCCCN)c2c1 (10 µM) | 0
22 | COc1cc2nnc(C(N)=O)c(Nc3ccc(C)cc3F)c2cc1N1CCN(CCO)CC1 (2.5 µM) | 0
23 | Nc1ccc(C(=O)Nc2cccc(-c3nc(N4CCOCC4)c4oc5ncccc5c4n3)c2)cn1 (10 µM) | 0
24 | Cc1nn(CC(F)(F)F)cc1Nc1ncc(Br)c(NCc2ccc(S(N)(=O)=O)cc2)n1 (10 µM) | 0
25 | O=C1NC(=O)C(Cc2c[nH]c3c(Cl)cccc23)N1 (centres undefined) [Necroptosis-IN-1] (10 µM) | 0
26 | CCCCNc1ncc2c(-c3ccc(F)cc3)nn(CC3CCC(N)CC3)c2n1 (centres undefined) (2.5 µM) | 0
27 | Cn1cc(-c2nc(N[C@@H]3CCCC[C@@H]3N)c(F)c3c2C(=O)NC3)cn1 [TAK-659 (hydrochloride)] (2 µM) | 0
28 | O=C1OC(COc2ccccc2[N+](=O)[O-])CC1Cc1ccccc1 (centres undefined) (10 µM) | 0
29 | Cc1cnc(Nc2ccc(F)cc2Cl)nc1-c1c[nH]c(C(=O)N[C@H](CO)c2cccc(Cl)c2)c1 (10 µM) | 0
30 | N#Cc1cnc(Nc2cc(NC[C@H]3CNCCO3)c(C(F)(F)F)cn2)cn1 (10 µM) | 0
31 | CNc1cc2c(Nc3cccc(Br)c3)ncnc2cn1 (10 µM) | 0
32 | Cc1ncsc1-c1ccc(CNC(=O)[C@@H]2C[C@@H](O)CN2C(=O)[C@@H](NC(=O)COCCOc2ccc(-c3cc(Nc4ccc(OC(F)(F)F)cc4)ncn3)cc2)C(C)(C)C)cc1 (2.5 µM) | 0
33 | O=CN1CCN(c2ccc(C=C3C(=O)Nc4ccccc43)cc2)CC1 (10 µM) | 0
34 | CN1C(=O)[C@@H](NC(=O)c2cc(Cc3ccccc3)on2)COc2ccccc21 (10 µM) | 0
35 | O=C(CCl)c1c[nH]c2ccccc12 (2.5 µM) | 0
36 | NC(=O)c1c(NC(=O)C2CC2)sc2c1CCCC2 (10 µM) | 0
37 | CN(C)c1ccc(/C=C2\C(=O)Nc3ccccc32)c2ccccc12 (10 µM) | 0
38 | O=C(O)c1c[nH]c2cc(Cl)c(-c3ccc(C4(O)CCC4)cc3)cc12 (10 µM) | 0
39 | CC1=C(C#N)C(c2ccc3[nH]nc(C)c3c2)C(C#N)=C(C)N1 (10 µM) | 0
